No constants are given. Whether binding was seen depends on the method and setting. Binding seen in cells or lysates may run through a third protein. Some binding calls cover weakened binding; strength is not graded here. For some of these results: Sequences can lack the tags named with a protein. Each block holds one molecule with its values, some of them ahead of it.
What was measured:
[1] = target: T1, Epsin 3 (EPN3), endogenous in MCF10A-Ctr cells (human (endogenous in MCF10A)) (UniProt Q9H201); assay: co-IP; MCF10A-Ctr and MCF10A-EPN3 cells, EGF starved overnight, cross-linked with 1% formaldehyde for 10 min at RT, lysed in RIPA buffer and sonicated; 1 mg lysate, IP with anti-EPN3 rabbit polyclonal Ab (or control IgG) and Protein G, 4 washes in RIPA; immunoblot of partners
T1 sequence: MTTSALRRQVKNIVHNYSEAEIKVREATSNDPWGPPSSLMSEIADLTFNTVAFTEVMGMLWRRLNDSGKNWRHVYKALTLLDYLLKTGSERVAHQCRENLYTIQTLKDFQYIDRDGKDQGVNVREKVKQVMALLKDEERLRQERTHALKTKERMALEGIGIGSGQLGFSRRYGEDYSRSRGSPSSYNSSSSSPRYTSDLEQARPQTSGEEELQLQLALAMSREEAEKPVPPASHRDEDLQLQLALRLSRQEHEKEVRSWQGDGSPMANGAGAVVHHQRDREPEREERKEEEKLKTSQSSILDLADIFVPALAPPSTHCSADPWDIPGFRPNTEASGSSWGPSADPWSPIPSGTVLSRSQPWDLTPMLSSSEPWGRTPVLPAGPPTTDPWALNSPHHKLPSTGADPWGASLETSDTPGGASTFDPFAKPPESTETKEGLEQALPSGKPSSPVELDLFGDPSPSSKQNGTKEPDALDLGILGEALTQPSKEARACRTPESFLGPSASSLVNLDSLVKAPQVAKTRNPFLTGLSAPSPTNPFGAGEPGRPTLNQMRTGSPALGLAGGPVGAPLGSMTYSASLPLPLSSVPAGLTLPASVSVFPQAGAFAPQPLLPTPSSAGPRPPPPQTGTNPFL

Chains of the proteins cited; added tags and fusions are not shown.
UniProt P35222: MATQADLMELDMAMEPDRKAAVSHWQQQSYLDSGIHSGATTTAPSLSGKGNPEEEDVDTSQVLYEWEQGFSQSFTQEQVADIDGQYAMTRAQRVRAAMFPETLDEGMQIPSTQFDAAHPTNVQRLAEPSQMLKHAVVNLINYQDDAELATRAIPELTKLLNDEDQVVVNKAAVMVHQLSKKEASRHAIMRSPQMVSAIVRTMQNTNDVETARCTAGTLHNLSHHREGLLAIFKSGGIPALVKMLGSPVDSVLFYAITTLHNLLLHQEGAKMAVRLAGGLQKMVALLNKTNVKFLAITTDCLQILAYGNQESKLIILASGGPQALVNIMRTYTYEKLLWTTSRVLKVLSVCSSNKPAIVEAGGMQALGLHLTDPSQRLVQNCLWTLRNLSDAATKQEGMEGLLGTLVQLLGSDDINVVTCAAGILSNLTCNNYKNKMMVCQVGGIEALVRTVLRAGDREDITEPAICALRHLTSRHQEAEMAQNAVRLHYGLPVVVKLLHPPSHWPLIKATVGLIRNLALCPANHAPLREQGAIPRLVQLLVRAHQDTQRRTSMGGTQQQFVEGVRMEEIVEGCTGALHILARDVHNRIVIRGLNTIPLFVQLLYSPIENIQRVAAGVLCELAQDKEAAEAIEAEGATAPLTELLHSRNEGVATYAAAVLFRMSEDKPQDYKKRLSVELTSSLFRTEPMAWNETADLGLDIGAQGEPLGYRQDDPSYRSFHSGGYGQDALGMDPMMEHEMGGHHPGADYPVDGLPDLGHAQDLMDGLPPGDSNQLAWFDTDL

[2] = target: T2, Flag-EPN3 (full-length human Epsin 3 overexpressed in MCF10A cells) (human) (UniProt Q9H201); assay: as above
T2 sequence: T1 sequence

binding [1]: binds | binding [2]: binds
Molecule: β-catenin (from UniProt P35222 1-781)

binding [1]: binds | binding [2]: binds
B1: p120-catenin (protein, UniProt O60716 1-968)
chain: MDDSEVESTASILASVKEQEAQFEKLTRALEEERRHVSAQLERVRVSPQDANPLMANGTLTRRHQNGRFVGDADLERQKFSDLKLNGPQDHSHLLYSTIPRMQEPGQIVETYTEEDPEGAMSVVSVETSDDGTTRRTETTVKKVVKTVTTRTVQPVAMGPDGLPVDASSVSNNYIQTLGRDFRKNGNGGPGPYVGQAGTATLPRNFHYPPDGYSRHYEDGYPGGSDNYGSLSRVTRIEERYRPSMEGYRAPSRQDVYGPQPQVRVGGSSVDLHRFHPEPYGLEDDQRSMGYDDLDYGMMSDYGTARRTGTPSDPRRRLRSYEDMIGEEVPSDQYYWAPLAQHERGSLASLDSLRKGGPPPPNWRQPELPEVIAMLGFRLDAVKSNAAAYLQHLCYRNDKVKTDVRKLKGIPVLVGLLDHPKKEVHLGACGALKNISFGRDQDNKIAIKNCDGVPALVRLLRKARDMDLTEVITGTLWNLSSHDSIKMEIVDHALHALTDEVIIPHSGWEREPNEDCKPRHIEWESVLTNTAGCLRNVSSERSEARRKLRECDGLVDALIFIVQAEIGQKDSDSKLVENCVCLLRNLSYQVHREIPQAERYQEAAPNVANNTGPHAASCFGAKKGKDEWFSRGKKPIEDPANDTVDFPKRTSPARGYELLFQPEVVRIYISLLKESKTPAILEASAGAIQNLCAGRWTYGRYIRSALRQEKALSAIADLLTNEHERVVKAASGALRNLAVDARNKELIGKHAIPNLVKNLPGGQQNSSWNFSEDTVISILNTINEVIAENLEAAKKLRETQGIEKLVLINKSGNRSEKEVRAAALVLQTIWGYKELRKPLEKEGWKKSDFQVNLNNASRSQSSHSYDDSTLPLIDRNQKSDKKPDREEIQMSNMGSNTKSLDNNYSTPNERGDHNRTLDRSGDLGDMEPLKGTTPLMQDEGQESLEEELDVLVLDDEGGQVSYPSMQKI

Source: PMC7296024
